Values from PubChem BioAssay AID652243 (Drosophila RNAi Screening Center, 2013)
Purpose: 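Knock-downs that decrease or increase androgen receptor reporter signal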 (primary screen). Cell system: Drosophila S2R+ cells. Knock-down reagent: long dsRNA against Drosophila genes. Duration: 72 h (48 h, then 24 h hormone). Treatment: synthetic androgen R1881 at 10 nM for 24 h. Read-out: 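Firefly light from an androgen-responsive reporter and Renilla control light per well, raw and unnormalised, for each of two replicates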. Reading the numbers: firefly reporter light: higher = more light from androgen-responsive reporter; Renilla control light: higher = more constitutive control signal (cell number, transfection). Active means: 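Hit when the log firefly-to-Renilla ratio dropped or increased by a fixed fold versus the mean of GFP or LacZ controls across duplicate plates; lowering cut given as 1.5 and as 3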. Meaning of the calls: active = hit: reporter lowered or raised; inactive = no hit.
The screen tested about 24,000 reagents; below is an unselected part of those with a known target gene and a result. In the full data, 246 (1%) are marked active. 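Plates not normalised; calls are printed but the firefly/Renilla ratio behind them is not deposited; fold cut for lowering reported inconsistently.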 Raw values vary from plate to plate and are shown uncorrected. Reagents against one gene are numbered here. Names joined by + are all predicted targets of the reagent. No sequences are given here. Not given: the amount of reagent.

no.	predicted target	reagent	firefly reporter light, replicate 1	firefly reporter light, replicate 2	Renilla control light, replicate 1	Renilla control light, replicate 2	activity call
1	Top1	1	2.30e5	2.70e5	2.48e6	2.98e6	inactive
2	CG3368	1	59203	77519	4.90e5	4.66e5	inactive
3	CG14711 + Zaf1	1	1.45e5	1.48e5	1.72e6	1.49e6	inactive
4	CG14711 + Zaf1	2	1.11e6	9.87e5	1.09e6	1.22e6	inactive
5	smp-30	1	1.52e5	2.54e5	2.48e6	3.30e6	inactive
6	smp-30	2	4.27e5	3.91e5	5.95e5	6.24e5	inactive
7	ATP6AP2	1	1.66e5	1.62e5	2.83e6	2.56e6	inactive
8	Gsc	1	88046	1.04e5	3.98e5	5.41e5	inactive
9	Gsc	2	5.49e5	4.44e5	5.98e5	4.42e5	inactive
10	CG8243	1	4.73e5	3.01e5	2.97e6	1.91e6	inactive
11	CG8243	2	5.08e5	8.72e5	6.84e5	1.18e6	inactive

2 entries from above, showing only “firefly reporter light, replicate 2”.
Top1 = 2.70e5
CG3368 = 77519

Next results:
no.	predicted target	reagent	firefly reporter light, replicate 1	firefly reporter light, replicate 2	Renilla control light, replicate 1	Renilla control light, replicate 2	activity call
12	CG5934	1	1.73e5	2.00e5	1.91e6	2.89e6	inactive
13	CG5934	2	3.09e5	3.07e5	7.84e5	7.27e5	inactive
14	ova	1	6.48e5	8.14e5	1.61e6	1.86e6	inactive
15	CG10104	1	52986	1.11e5	1.29e6	1.29e6	inactive
16	RpS5b	1	2.07e5	2.08e5	1.66e6	2.00e6	inactive
17	Nak	1	1.29e6	7.11e5	2.07e6	1.12e6	inactive
18	Nak	2	2.12e5	2.67e5	3.16e5	7.53e5	inactive
19	Nak	3					inactive
20	ATPsyngamma	1	1.12e5	1.07e5	1.15e6	1.23e6	inactive
21	asRNA:CR43159 + yellow-k	1	1.45e5	1.62e5	1.56e6	1.83e6	inactive
22	Cpr47Eg	1	2.91e5	3.19e5	1.22e6	1.95e6	inactive
23	Osi20	1	1.13e5	1.13e5	2.84e6	2.32e6	inactive
24	Osi20	2	4.17e5	4.02e5	1.04e6	8.51e5	inactive
